The supplement of paper PMC6411743
± gives the standard deviation of the averaged measurements. The list shows a part of the results.

Protein sequences, listed by entry. Tags and fused reporters are not part of them. Lines headed by an entry give the natural chain unless they say otherwise; changes in a name come on top.
UniProt Q9NTJ3, whole entry: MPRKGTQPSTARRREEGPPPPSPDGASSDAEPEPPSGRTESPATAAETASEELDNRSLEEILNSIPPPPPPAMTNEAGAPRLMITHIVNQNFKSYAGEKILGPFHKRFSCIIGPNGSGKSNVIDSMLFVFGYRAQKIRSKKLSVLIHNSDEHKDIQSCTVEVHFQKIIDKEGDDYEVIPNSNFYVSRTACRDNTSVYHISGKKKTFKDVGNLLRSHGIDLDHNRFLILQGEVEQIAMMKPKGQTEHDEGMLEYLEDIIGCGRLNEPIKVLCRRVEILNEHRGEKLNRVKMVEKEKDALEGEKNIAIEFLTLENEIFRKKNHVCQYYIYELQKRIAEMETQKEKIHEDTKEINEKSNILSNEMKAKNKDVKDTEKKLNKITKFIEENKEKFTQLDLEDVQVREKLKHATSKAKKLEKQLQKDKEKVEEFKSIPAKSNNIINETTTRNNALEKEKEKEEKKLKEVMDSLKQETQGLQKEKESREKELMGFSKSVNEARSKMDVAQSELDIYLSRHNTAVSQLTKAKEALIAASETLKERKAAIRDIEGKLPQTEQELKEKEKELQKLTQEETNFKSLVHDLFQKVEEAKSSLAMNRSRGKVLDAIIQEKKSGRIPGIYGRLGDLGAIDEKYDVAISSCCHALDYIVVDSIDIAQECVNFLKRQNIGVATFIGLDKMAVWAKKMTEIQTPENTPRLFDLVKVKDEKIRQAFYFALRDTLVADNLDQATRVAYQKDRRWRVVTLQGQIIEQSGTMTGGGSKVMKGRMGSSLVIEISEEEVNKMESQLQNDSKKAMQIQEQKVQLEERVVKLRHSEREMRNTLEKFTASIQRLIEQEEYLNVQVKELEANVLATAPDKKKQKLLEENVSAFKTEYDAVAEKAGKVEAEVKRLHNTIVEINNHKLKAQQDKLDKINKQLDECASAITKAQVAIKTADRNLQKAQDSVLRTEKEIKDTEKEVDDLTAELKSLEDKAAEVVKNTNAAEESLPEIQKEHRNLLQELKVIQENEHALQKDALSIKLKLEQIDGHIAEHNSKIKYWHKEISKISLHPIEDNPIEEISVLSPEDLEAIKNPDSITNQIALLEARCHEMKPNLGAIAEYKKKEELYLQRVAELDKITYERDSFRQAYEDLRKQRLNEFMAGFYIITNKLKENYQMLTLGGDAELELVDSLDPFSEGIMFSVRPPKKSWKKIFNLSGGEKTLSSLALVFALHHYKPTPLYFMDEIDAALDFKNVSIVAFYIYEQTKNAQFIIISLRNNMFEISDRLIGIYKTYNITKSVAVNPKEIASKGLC
UniProt Q9BZI7: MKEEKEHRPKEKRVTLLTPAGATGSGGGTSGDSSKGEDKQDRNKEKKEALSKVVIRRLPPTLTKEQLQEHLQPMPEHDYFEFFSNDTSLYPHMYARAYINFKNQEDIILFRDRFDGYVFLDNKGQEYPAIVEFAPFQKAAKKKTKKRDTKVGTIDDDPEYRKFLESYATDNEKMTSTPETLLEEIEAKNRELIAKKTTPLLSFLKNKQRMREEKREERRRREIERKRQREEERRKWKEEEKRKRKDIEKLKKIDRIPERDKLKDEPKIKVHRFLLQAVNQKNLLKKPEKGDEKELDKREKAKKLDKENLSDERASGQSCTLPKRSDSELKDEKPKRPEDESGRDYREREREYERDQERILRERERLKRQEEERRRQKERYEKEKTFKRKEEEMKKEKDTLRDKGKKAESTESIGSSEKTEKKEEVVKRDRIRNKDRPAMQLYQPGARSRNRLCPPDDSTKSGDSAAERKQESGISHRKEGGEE
UniProt Q9H4G4: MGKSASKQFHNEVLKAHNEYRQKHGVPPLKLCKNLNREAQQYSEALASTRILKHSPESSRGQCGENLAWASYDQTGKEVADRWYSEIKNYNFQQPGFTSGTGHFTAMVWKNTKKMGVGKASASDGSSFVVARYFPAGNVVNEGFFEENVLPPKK
UniProt Q9H6W3: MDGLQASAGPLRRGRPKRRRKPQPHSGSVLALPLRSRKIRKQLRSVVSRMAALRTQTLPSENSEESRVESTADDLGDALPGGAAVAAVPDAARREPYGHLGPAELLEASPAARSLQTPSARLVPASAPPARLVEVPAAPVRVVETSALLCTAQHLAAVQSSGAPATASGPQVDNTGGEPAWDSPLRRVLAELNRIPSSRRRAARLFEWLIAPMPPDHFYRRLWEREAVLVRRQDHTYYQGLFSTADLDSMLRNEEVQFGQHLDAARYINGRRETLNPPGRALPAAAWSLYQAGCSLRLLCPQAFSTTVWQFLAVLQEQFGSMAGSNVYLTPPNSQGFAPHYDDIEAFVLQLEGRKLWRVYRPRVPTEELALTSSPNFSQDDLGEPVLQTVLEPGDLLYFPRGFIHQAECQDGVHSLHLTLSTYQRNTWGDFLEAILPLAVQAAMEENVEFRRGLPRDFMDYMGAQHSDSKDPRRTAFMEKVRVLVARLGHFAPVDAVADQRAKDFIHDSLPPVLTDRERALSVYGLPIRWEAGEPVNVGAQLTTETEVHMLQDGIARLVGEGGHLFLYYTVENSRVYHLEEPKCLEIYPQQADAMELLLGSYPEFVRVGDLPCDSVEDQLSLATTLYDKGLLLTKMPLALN
UniProt Q9NR50: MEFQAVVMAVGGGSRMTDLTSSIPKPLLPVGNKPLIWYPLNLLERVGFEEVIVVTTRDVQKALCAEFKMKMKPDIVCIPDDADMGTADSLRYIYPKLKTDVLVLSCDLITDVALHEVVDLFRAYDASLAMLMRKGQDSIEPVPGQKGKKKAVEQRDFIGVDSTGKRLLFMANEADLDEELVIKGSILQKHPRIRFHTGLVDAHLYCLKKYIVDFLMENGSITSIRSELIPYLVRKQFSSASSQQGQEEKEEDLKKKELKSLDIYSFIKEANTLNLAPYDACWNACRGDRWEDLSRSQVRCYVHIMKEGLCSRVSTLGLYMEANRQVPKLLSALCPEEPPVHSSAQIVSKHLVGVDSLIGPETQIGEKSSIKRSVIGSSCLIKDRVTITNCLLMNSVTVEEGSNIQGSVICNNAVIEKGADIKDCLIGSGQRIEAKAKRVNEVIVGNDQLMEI
UniProt Q9HCM1: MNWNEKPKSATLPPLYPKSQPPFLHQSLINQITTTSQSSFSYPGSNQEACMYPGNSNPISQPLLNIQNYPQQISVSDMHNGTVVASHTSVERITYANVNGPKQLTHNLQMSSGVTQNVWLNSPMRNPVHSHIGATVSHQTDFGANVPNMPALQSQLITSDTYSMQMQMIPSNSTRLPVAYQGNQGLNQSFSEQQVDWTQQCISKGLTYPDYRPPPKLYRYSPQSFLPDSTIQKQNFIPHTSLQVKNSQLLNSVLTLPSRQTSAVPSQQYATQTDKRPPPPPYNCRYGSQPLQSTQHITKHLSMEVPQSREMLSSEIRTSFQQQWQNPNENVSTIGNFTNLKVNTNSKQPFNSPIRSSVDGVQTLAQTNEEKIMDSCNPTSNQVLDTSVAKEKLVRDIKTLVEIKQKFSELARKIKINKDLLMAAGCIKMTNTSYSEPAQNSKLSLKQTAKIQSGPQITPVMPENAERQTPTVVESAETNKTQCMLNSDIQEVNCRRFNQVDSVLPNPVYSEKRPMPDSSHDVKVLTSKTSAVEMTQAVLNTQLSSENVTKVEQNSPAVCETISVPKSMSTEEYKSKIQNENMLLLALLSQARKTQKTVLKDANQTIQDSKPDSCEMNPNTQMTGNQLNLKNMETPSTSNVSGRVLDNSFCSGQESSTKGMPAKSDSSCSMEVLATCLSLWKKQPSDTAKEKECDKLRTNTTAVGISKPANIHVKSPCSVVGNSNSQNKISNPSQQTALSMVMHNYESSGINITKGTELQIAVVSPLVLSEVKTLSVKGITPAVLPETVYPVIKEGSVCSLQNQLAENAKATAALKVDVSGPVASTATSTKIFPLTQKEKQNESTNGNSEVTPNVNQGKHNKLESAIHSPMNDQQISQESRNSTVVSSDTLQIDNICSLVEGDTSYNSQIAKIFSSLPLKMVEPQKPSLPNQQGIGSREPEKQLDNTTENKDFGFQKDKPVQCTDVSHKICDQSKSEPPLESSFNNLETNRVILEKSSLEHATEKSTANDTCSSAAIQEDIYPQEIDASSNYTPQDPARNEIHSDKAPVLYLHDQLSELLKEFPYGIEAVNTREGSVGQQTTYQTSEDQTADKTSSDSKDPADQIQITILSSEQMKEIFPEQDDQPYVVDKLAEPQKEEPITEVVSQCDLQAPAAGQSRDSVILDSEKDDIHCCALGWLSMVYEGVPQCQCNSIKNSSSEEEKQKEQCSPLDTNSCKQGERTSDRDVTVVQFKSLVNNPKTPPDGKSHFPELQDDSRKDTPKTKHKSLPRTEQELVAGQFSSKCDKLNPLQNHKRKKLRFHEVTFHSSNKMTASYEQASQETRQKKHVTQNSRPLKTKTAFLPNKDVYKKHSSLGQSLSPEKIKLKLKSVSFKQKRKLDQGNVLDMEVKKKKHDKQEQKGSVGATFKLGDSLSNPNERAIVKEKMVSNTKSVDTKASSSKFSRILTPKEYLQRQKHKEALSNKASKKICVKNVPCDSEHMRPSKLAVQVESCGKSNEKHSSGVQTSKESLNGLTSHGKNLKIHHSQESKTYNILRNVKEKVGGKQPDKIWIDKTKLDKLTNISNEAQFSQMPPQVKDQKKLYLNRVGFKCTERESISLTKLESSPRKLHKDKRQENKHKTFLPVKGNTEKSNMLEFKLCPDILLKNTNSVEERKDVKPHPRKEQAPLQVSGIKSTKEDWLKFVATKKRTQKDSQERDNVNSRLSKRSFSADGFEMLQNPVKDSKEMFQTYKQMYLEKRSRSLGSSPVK
UniProt Q9NU19: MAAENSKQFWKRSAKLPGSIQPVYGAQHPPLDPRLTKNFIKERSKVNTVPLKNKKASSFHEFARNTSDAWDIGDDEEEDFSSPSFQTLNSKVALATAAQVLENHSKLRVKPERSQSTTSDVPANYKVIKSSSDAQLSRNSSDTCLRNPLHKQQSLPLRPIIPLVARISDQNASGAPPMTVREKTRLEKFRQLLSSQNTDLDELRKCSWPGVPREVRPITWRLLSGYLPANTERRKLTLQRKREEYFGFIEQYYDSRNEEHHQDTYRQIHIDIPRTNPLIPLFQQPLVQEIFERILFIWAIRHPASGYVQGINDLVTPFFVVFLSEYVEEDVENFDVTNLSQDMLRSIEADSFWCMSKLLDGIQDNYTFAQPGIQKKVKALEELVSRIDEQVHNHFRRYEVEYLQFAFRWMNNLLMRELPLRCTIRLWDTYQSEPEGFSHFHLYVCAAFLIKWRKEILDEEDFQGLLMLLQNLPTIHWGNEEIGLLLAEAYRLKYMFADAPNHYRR
UniProt Q9H4L4: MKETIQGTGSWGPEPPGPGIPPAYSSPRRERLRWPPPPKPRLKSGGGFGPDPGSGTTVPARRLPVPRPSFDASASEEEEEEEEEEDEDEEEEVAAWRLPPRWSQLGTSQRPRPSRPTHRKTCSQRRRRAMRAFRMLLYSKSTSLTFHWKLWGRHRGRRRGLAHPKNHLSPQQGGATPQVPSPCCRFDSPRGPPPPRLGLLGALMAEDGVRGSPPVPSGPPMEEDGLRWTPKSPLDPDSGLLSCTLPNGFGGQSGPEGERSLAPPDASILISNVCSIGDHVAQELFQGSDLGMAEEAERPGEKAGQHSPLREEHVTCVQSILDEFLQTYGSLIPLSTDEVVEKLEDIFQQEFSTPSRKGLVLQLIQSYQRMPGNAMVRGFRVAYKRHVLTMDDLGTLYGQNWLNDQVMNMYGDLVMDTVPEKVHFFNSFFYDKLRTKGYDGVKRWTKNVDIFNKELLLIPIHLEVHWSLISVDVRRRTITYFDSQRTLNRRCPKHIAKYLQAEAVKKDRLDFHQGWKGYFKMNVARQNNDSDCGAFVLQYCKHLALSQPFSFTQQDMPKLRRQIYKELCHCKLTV
UniProt Q9H6T3, whole entry: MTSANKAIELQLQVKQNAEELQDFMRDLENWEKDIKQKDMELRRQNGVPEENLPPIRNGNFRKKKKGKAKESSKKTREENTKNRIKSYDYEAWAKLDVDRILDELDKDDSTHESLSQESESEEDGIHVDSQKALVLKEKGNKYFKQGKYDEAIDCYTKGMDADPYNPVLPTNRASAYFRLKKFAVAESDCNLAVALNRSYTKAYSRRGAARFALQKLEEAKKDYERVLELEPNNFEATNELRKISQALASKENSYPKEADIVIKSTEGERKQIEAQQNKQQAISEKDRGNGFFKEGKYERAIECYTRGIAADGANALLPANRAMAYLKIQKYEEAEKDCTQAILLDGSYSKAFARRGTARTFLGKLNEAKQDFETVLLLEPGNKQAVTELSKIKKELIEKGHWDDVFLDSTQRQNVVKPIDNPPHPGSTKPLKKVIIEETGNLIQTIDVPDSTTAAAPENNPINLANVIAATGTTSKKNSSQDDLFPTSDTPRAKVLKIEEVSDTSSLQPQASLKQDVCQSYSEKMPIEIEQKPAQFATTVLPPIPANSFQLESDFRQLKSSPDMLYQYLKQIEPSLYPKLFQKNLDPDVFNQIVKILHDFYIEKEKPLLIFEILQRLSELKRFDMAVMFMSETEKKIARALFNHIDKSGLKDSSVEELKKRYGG

Compound: Nc1nc2c(ncn2[C@@H]2O[C@H](COP(=O)(O)OP(=O)(O)OP(=O)(O)O)[C@@H](O)[C@H]2O)c(=O)[nH]1 [guanosine triphosphate]
Assay: NP40-soluble protein abundance relative to vehicle (solubility fold change) (ratio); higher = more soluble protein in presence of GTP
Outline: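 Each value is a fold change relative to the detergent-processed vehicle, calculated per replicate from vsn-normalised intensities. Jurkat crude lysate received eight concentrations (0.1 to 10 mM) for 10 min at room temperature and 3 min at 37 °C, then was solubilised in 0.8% NP40 with benzonase (60 min, 4 °C). The ultracentrifuged supernatant was TMT-labelled and run by LC-MS/MS in three independent experiments.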

Row | Target | NP40-soluble protein abundance (concentration: 0.1mM) | NP40-soluble protein abundance (concentration: 0.5mM) | NP40-soluble protein abundance (concentration: 1mM) | NP40-soluble protein abundance (concentration: 2mM) | NP40-soluble protein abundance (concentration: 4mM) | NP40-soluble protein abundance (concentration: 6mM) | NP40-soluble protein abundance (concentration: 8mM) | NP40-soluble protein abundance (concentration: 10mM)
1 | UniProt Q9H3Z4 and related entries | 0.93 ± 0.049 | 0.939 ± 0.062 | 0.906 ± 0.049 | 0.914 ± 0.1 | 0.926 ± 0.047 | 0.907 ± 0.045 | 0.883 ± 0.037 | 0.878 ± 0.089
2 | UniProt Q9NTJ3 and related entries | 0.971 ± 0.03 | 1.01 ± 0.018 | 0.993 ± 0.024 | 0.977 ± 0.036 | 0.984 ± 0.045 | 1.01 ± 0.038 | 1.02 ± 0.098 | 0.986 ± 0.052
3 | TMEM165 (UniProt Q9HC07) | 0.979 ± 0.078 | 0.948 ± 0.081 | 0.989 ± 0.12 | 0.991 ± 0.11 | 1 ± 0.16 | 0.952 ± 0.1 | 0.959 ± 0.15 | 0.981 ± 0.13
4 | UniProt Q9BZI7 and related entries | 0.934 ± 0.096 | 0.955 ± 0.082 | 0.994 ± 0.11 | 0.988 ± 0.11 | 0.993 ± 0.1 | 1.01 ± 0.096 | 1.04 ± 0.12 | 1.07 ± 0.098
5 | UniProt Q9H4G4 and related entries | 0.89 ± 0.069 | 0.903 ± 0.1 | 0.921 ± 0.046 | 0.887 ± 0.087 | 0.89 ± 0.046 | 0.9 ± 0.11 | 0.892 ± 0.07 | 0.884 ± 0.11
6 | UniProt Q9H6W3 | 1.01 ± 0.095 | 1.06 ± 0.097 | 1.08 ± 0.059 | 1.13 ± 0.041 | 1.2 ± 0.026 | 1.22 ± 0.057 | 1.27 ± 0.079 | 1.36 ± 0.082
7 | UniProt Q9H9T3-2 | 1.05 ± 0.065 | 1.08 ± 0.06 | 1.07 ± 0.094 | 1.11 ± 0.13 | 1.09 ± 0.12 | 1.12 ± 0.12 | 1.08 ± 0.1 | 1.02 ± 0.1
8 | EIF2B3 (UniProt Q9NR50) | 1.04 ± 0.062 | 1.01 ± 0.078 | 0.984 ± 0.062 | 1.03 ± 0.1 | 1.07 ± 0.079 | 1.03 ± 0.1 | 1.03 ± 0.06 | 1.02 ± 0.081
9 | MDN1 (UniProt Q9NU22) | 1.09 ± 0.096 | 1.06 ± 0.12 | 0.971 ± 0.081 | 0.995 ± 0.097 | 1.08 ± 0.13 | 1.08 ± 0.12 | 1.09 ± 0.084 | 1.09 ± 0.083
10 | UniProt Q9NSI2 and related entries | 0.959 ± 0.068 | 0.852 ± 0.074 | 0.965 ± 0.042 | 0.949 ± 0.076 | 0.893 ± 0.054 | 0.876 ± 0.033 | 0.844 ± 0.1 | 0.921 ± 0.063
11 | UniProt Q9HCM1 | 1.02 ± 0.041 | 0.979 ± 0.14 | 1.06 ± 0.069 | 1.07 ± 0.025 | 1.07 ± 0.088 | 1.07 ± 0.019 | 1.06 ± 0.024 | 1.158 ± 0.0046
12 | TBC1D22B (UniProt Q9NU19) | 0.994 ± 0.021 | 0.983 ± 0.068 | 1.07 ± 0.047 | 1.01 ± 0.016 | 0.88471 ± 6.7e-05 | 0.971 ± 0.1 | 0.998 ± 0.039 | 0.951 ± 0.031
13 | SENP3 (UniProt Q9H4L4) | 0.973 ± 0.084 | 0.972 ± 0.095 | 0.968 ± 0.19 | 1.05 ± 0.22 | 1.01 ± 0.19 | 0.987 ± 0.2 | 1.05 ± 0.27 | 1.07 ± 0.11
14 | XRN2 (UniProt Q9H0D6) | 0.993 ± 0.025 | 0.995 ± 0.027 | 0.974 ± 0.017 | 0.977 ± 0.027 | 0.985 ± 0.018 | 0.986 ± 0.027 | 1 ± 0.039 | 0.982 ± 0.028
15 | RPAP3 (UniProt Q9H6T3) | 0.985 ± 0.032 | 1.02 ± 0.037 | 1.04 ± 0.02 | 1.04 ± 0.04 | 1.05 ± 0.039 | 1.06 ± 0.041 | 1.1 ± 0.077 | 1.07 ± 0.08

Some of the entries so far, as tab-separated lines.
Row	Target	NP40-soluble protein abundance (concentration: 0.1mM)	NP40-soluble protein abundance (concentration: 0.5mM)	NP40-soluble protein abundance (concentration: 1mM)	NP40-soluble protein abundance (concentration: 2mM)	NP40-soluble protein abundance (concentration: 4mM)	NP40-soluble protein abundance (concentration: 6mM)	NP40-soluble protein abundance (concentration: 8mM)	NP40-soluble protein abundance (concentration: 10mM)
7	UniProt Q9H9T3-2	1.05 ± 0.065	1.08 ± 0.06	1.07 ± 0.094	1.11 ± 0.13	1.09 ± 0.12	1.12 ± 0.12	1.08 ± 0.1	1.02 ± 0.1
8	EIF2B3 (UniProt Q9NR50)	1.04 ± 0.062	1.01 ± 0.078	0.984 ± 0.062	1.03 ± 0.1	1.07 ± 0.079	1.03 ± 0.1	1.03 ± 0.06	1.02 ± 0.081
9	MDN1 (UniProt Q9NU22)	1.09 ± 0.096	1.06 ± 0.12	0.971 ± 0.081	0.995 ± 0.097	1.08 ± 0.13	1.08 ± 0.12	1.09 ± 0.084	1.09 ± 0.083
10	UniProt Q9NSI2 and related entries	0.959 ± 0.068	0.852 ± 0.074	0.965 ± 0.042	0.949 ± 0.076	0.893 ± 0.054	0.876 ± 0.033	0.844 ± 0.1	0.921 ± 0.063
